Assay results: publication PMC10244618

Protein sequences, listed by entry. Tags and fused reporters are not part of them. Lines headed by an entry give the natural chain unless they say otherwise; changes in a name come on top. Chains listed by the source or under a name are the forms on record and can include a tag or linker. Residues count along the entry.
NF2 C-terminal half of isoform 1 (AA M308-595) (P35240, residues 308-595): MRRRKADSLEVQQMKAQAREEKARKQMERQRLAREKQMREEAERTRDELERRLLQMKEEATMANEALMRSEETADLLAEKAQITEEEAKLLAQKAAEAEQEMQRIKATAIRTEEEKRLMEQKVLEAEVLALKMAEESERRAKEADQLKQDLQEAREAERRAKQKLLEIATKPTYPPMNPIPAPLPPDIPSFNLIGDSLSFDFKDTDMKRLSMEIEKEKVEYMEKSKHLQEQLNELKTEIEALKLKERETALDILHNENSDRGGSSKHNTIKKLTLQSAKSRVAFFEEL
NF2 C-terminal half of isoform 7 (AA M225-507) (P35240-4, form named): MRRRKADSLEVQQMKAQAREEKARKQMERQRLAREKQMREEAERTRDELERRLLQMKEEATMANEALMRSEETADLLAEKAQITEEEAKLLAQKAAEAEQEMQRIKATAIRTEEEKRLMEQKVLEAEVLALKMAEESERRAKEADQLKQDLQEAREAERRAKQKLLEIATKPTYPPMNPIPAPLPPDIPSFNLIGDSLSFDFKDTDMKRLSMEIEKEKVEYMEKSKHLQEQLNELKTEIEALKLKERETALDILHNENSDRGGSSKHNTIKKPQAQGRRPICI
UniProt Q9Y6C2: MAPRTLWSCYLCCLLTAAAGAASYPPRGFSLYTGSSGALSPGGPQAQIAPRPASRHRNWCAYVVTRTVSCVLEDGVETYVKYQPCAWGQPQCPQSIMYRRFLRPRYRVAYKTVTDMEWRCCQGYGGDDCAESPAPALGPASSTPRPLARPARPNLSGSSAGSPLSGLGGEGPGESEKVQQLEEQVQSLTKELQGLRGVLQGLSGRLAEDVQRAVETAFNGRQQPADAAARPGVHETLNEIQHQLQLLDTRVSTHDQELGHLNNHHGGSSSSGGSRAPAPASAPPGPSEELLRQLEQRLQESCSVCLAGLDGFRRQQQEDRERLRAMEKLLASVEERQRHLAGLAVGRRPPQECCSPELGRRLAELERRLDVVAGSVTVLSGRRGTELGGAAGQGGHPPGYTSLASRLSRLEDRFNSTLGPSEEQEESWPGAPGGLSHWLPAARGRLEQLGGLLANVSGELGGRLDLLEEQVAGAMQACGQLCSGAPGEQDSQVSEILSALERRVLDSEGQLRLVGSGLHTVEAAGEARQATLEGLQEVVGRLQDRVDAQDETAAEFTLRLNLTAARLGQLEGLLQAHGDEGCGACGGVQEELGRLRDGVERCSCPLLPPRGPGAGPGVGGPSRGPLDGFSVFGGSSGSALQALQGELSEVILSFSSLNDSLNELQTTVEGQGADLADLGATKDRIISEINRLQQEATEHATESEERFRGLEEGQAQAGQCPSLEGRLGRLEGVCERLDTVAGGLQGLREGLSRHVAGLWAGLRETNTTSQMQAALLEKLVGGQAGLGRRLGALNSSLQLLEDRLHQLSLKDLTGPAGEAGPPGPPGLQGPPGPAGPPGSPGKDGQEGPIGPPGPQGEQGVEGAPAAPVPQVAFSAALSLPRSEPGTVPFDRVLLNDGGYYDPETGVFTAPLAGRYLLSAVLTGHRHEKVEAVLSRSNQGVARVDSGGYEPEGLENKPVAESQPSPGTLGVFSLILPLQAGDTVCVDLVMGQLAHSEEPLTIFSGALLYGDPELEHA

Target: NF2 isoform 1 with an exon 16 derived C-terminus (human) (UniProt P35240)
Assay: two-hybrid; Y2H colony matrix (Fig 1B): NF2 constructs as bait, partners as prey; growth of diploid yeast on selective agar; each pair tested with active tyrosine kinase ABL2 and with kinase-dead ABL2KD (K35M) co-expressed

| binding | Substance |
| --- | --- |
| no binding | NF2 C-terminal half of isoform 1 (AA M308-595) (from UniProt P35240-1 308-595) (domain or fragment) |
| no binding | NF2 C-terminal half of isoform 7 (AA M225-507) (from UniProt P35240-4 225-507) (domain or fragment) |
| no binding | elastin microfibril interfacer 1 protein (from UniProt Q9Y6C2 1-1016) |
| no binding | phosphoinositide-3-kinase regulatory subunit 3 (from UniProt Q92569 1-461) |

These are yes or no findings as the source states them, for the method shown.
